Results from PubChem BioAssay AID1347426 (Functional Genomics Laboratory (NCATS/FGL), 2020).
Hit rate of the full screen: of about 31,000 sequences, about 1,400 (4.5%) were called active.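 Rule for the calls: active = median seed-adjusted z-score above 1 or below -1; inactive = the rest.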 The list shows a part of the results.

Assay: Novel Modifiers of Survival Motor Neuron (SMN) Protein: Gene Identification via Genome-wide siRNA Screen;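 note: luminescence tracks full-length SMN protein made from the SMN2 reporter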
Conditions: HEK293T SMN2-luciferase reporter, siRNA knockdown, 72 h; actives lie on both sides
How it was run: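 HEK293T cells stably carrying an SMN2 promoter/splicing cassette–luciferase reporter were reverse-transfected with 1 pmol siRNA per well (druggable-genome library, 3 siRNAs per gene) and grown 72 h at 37 °C. Luminescence, normalized to negative-control siRNA and log10-transformed, was scored as MAD.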

Sequence | median seed-adjusted z-score
GGAGAAUUACGAUUAGGGATT against CSNK1G3 | inactive: 0
GGUGAGCCCUCUCCUAAGATT against HMGA2 | inactive: -0.327
GGAUGACGGAGUAAUCUUATT against BCMO1 | inactive: 0.53
GAGGAUUAGUAGAUCACAATT against RG9MTD2 | inactive: -0.599
GACCUUGACUCGGCUAUAATT against ATAD1 | inactive: -0.544
GGAGCAAGUCUGAAGCUGATT against KRT76 | inactive: 0.726
CCAACACCUAAGUCACGCATT against SLC25A12 | inactive: -0.275
GCUGCACGACUUUACCCAATT against PIK3CG | inactive: 0.576
AGAGGCUACUUUGAAAACATT against APOBEC3H | inactive: 0.256
UGGAAUCUGUGGUAAAGAATT against HGS | active: 1.16
GAACCAGAGAUUAUAAGAATT against PRIM1 | inactive: -0.23
CUGUGGAAUCUGUACCCUUTT against TRIM35 | inactive: -0.0463
GAGCGAUUACAGCAAAUAUTT against KRT12 | inactive: -0.0457
CAGCUUCCUUACUAUGAAATT against RBM11 | inactive: -0.0341
GGUUAGUCAGAUACGAAAATT against PI4K2B | inactive: 0.0345
GCGUUAAGUCUAAAUGAGATT against PCDHA12 | inactive: 0.0761
GGCAUAUAAUUAUAGAGGATT against TXNDC10 | inactive: -0.0542
ACAACCCUCUUAAAACUAATT against IGF2 | inactive: -0.0306
CCCGAGAACUUAAUCGCUATT against ADAMTS16 | inactive: -0.133
GGUAAACGAGAUCAACUUUTT against DVL3 | inactive: -0.57
CACUGAUUUUGGAUGCUCUTT against HES1 | inactive: -0.262
CAAUGGAUCCUGUAUCCAATT against TNFAIP6 | inactive: 0
CGGCUAUGACAAGUCAAUATT against PKDREJ | inactive: 0.376

Sequence | median seed-adjusted z-score
GCAUUGGAACUCUUAACUATT against KRR1 | inactive: -0.0353
GGAUCAAUCGUGUCACCGATT against OGDH | inactive: 0.253
UCCUAGAUAUCAUCCUGAATT against KCNH4 | inactive: -0.769
CCAGCACAGUAGGACCUCATT against LPAL2 | inactive: 0.7
GGAUAGGAUUCAGAGUUCATT against GALNT5 | inactive: -0.279
GAGGUUCCAGUAAACGAAATT against UPF2 | inactive: -0.376
GUAACAUCUGAGACAGAUATT against AKT3 | inactive: -0.0936
GCAGAUCACAUGAAGAGAATT against DHX38 | inactive: -0.723
GCCUUCAGAUGUUGCAAUUTT against ZNF700 | inactive: 0
GAUGAUGAAUUAGUAAUGATT against CYP20A1 | inactive: -0.796
GGAUCAAGAAGACACUACATT against ACVRL1 | inactive: -0.361
GGAAUGCUUUAGUCGUGGATT against EHD4 | inactive: 0.333
CCGACUACCUGAUCCUACUTT against GPR152 | inactive: -0.9
CAAACGACCCAGACGAAGATT against SIGLEC6 | inactive: 0.0176
GCAUCCAGUUUCUACCCUATT against LDHAL6A | inactive: -0.15
GUUAACAAGUGGAAUGGAATT against FBXW7 | inactive: 0
CAUGAUACAGGGAAUAAAATT against ZNF619 | inactive: -0.536
GCAGCACUGAGAUUAGGCATT against LIMA1 | inactive: -0.359
GCUCCGCACUAGAUCUAUUTT against STK24 | inactive: 0.0531
CGCUCUACCAUGUACUCUATT against SEMA5B | inactive: 0.641
CAUGACUUCUGAUAAUGCATT against ATG4C | inactive: -0.414
GCUGUACUCCCUUACAUUATT against PSMD10 | inactive: 0.265
AUAUCACAAUACACUGUGATT against FCGR1B | inactive: 0.2

Some of the entries above in another layout:
CCCGAGAACUUAAUCGCUATT against ADAMTS16
  median seed-adjusted z-score: inactive: -0.133
GGUAAACGAGAUCAACUUUTT against DVL3
  median seed-adjusted z-score: inactive: -0.57
CACUGAUUUUGGAUGCUCUTT against HES1
  median seed-adjusted z-score: inactive: -0.262

Next records.

Sequence | median seed-adjusted z-score
CCUCAUUGAUCAUCACCGATT against ZNF567 | inactive: -0.114
AGGACAUCAGCGAAACCAATT against KCNH3 | inactive: -0.509
GUAUAUUCAUGGAUCUGAATT against BMP8B | inactive: 0
CCCAUGGACUACGCCUUUATT against DMRTA2 | inactive: 0.252
GGCGGAGCCUUAAUGAUGATT against ATN1 | inactive: -0.357
GUAUGCUCCCGAUCAAGUATT against APOBEC3A | inactive: 0.467
CUAUGAACAGUGUCAAAUATT against PIGB | inactive: 0.199
ACAGCACAUGAGACAGAUATT against CBX1 | inactive: 0
UGAUGAGCUGCAAAAUGUATT against CLDN7 | inactive: 0.0208
GGAAAUUGACUUUCUAAAATT against KRT84 | inactive: -0.645
CGAGGACGAUGACUGCUUATT against LRP8 | inactive: -0.547
GGUGGGAACCUAUCAUACATT against MEP1A | inactive: 0.209
CAACUCCACCUUCGCCUAATT against MIF | inactive: 0.214
GCCGGAGUUUUGAAUGAAATT against HSD17B2 | inactive: 0.521
GCGGCUCUCUGUUGACUAUTT against TUBA4A | inactive: -0.594
GCCUUUAUCUCUCUCACCATT against ZNF670 | inactive: 0
GGAAGAUUGUAUCUGAUUATT against CPA4 | inactive: -0.182
GAUGCAAACUAGUCCUGAATT against MLC1 | inactive: -0.284
CCACUACGGUAUUAGAGCATT against CDH19 | inactive: -0.409
GGAAAAUCCCAAAAUGGAATT against PDIK1L | inactive: 0.0682
UGCUGAGGGUGUUCCCAGATT against GABRR2 | inactive: 0
GGCAAUUCGUUGAUGUAUATT against UCHL3 | inactive: 0.378
